Results are given in words; binding and its absence hold for the method and conditions named. In cells and extracts the contact can be indirect. Some binding calls cover weakened binding; strength is not graded here.
Experiments:
[1] = biological target: FAK WT (wild-type focal adhesion kinase re-expressed in FAK-/- SCC cells) (UniProt Q00944); test: co-IP; 1 mg SCC cell lysate (FAK WT, FAK K1001A/K1003A or FAK-/-; RIPA or NP40 buffer) with 2 ug antibody or 10 ul agarose-conjugated antibody at 4 C overnight; beads washed three times in lysis buffer and once in 0.6 M LiCl; western blot; for the LC3B IP FAK-/- cells with Eps8 or non-targeting shRNA
[2] = biological target: FAK K1001A/K1003A (UniProt Q00944); test: as above

Sequences of proteins named here, by UniProt entry; tags and fusion partners are left off. A change or cut given only in a name is not applied to a line headed by its entry.
UniProt Q00944: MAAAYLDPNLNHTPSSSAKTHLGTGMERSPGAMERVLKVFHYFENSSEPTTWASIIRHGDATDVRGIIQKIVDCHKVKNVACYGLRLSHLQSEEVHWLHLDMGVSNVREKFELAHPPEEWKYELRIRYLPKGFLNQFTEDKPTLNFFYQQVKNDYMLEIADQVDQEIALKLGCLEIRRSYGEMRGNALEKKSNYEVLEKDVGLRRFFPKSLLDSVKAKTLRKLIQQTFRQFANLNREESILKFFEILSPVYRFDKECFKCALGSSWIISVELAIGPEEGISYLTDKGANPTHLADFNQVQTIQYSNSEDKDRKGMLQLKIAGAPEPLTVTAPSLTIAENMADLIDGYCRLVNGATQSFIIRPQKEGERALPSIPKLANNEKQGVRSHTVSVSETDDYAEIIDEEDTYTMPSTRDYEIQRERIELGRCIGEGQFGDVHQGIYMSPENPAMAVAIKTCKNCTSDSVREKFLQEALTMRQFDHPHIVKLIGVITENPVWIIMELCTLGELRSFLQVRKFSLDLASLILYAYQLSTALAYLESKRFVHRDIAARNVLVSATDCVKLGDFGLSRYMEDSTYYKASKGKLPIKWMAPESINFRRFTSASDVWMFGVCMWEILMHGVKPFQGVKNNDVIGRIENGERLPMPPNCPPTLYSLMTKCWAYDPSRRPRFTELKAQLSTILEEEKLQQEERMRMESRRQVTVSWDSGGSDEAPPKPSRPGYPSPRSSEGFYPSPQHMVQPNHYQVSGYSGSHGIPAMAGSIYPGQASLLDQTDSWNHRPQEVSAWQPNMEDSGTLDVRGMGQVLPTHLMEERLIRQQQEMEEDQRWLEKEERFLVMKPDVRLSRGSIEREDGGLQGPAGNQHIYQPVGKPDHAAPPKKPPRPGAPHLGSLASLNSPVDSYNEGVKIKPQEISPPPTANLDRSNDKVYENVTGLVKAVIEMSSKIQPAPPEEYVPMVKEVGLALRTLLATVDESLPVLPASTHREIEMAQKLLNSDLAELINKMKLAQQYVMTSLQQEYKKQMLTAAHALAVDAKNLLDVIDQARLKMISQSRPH

B1: p130Cas (protein, UniProt Q61140 1-874)
chain: MTVPNVLAKALYDNVAESPDELSFRKGDIMTVLERDTQGLDGWWLCSLHGRQGIVPGNRLKILVGMYDKKPVGPGPGPPATPPQPQPSLPQGVHAPVPPASQYSPMLPTAYQPQSDNVYLVPTPSKTQQGLYQAPGPNPQFQSPPAKQTSTFSKQTPHHSFPSPATDLYQVPPGPGSPAQDIYQVPPSAGIGHDIYQVPPSLDTRGWEGTKPPAKVVVPTRVGQGYVYEAAQTEQDEYDTPRHLLAPGPQDIYDVPPVRGLLPNQYGQEVYDTPPMAVKGPNGRDPLLDVYDVPPSVEKGLLSSSHHSVYDVPPSVSKDVPDGPLLREETYDVPPAFAKPKPFDPTRHPLILAAPPPDSPAAEDVYDVPPPAPDLYDVPPGLRRPGPGTLYDVPRERVLPPEVADGSVVDDGVYAVPPPAEREAPTDGKRLSASSTGSTRSSQSASSLEVVVPGREPLELEVAVESLARLQQGVSTTVAHLLDLVGSASGPGGWRGTSEPQEPPAQDLKAAVAAVHGAVHELLEFARGAVSNATHTSDRTLHAKLSRQLQKMEDVYQTLVVHGQVLDSGRGSPGFTPEDLDRLVACSRAVPEDAKQLASFLHGNASLLFRRTKAPGPGPEGSSSLHPNPTDKASSIQSRPLPSPPKFTSQDSPDGQYENSEGGWMEDYDYVHLQGKEEFEKTQKELLERGNIMRQGKGQLELQQLKQFERLEQEVSRPIDHDLANWTPAQPLVPGRTGGLGPSDRQLLLFYLEQCEANLTTLTDAVDAFFTAVATNQPPKIFVAHSKFVILSAHKLVFIGDTLSRQAKAADVRSQVTHYSNLLCDLLRGIVATTKAAALQYPSPSAAQDMVDRVKELGHSTQQFRRVLGQLAAA
With B1 the binding [1] was “binds” and the binding [2] was “binds”.

Source: PMC4265741
